# Source: article PMC9350836
# These are yes or no findings as the source states them, for the method shown.
# Assays:
# [1] = biological target: glutamyl-tRNA synthetase from Elizabethkingia anopheles (Elizabethkingia anopheles NUHP1); test: SEC; Superdex 75; running buffer 25 mM HEPES pH 7.0, 500 mM NaCl, 5% glycerol, 2 mM DTT, 0.025% sodium azide; protein after Ni-NTA IMAC; both purified
# [2] = biological target: glutamyl-tRNA synthetase from Elizabethkingia meningosepticum (Elizabethkingia meningosepticum CCUG 26117); test: as above
Binder,binding [1],binding [2]
glutamyl-tRNA synthetase from Elizabethkingia anopheles (enzyme) MEKVRVRFAPSPTGPLHLGGVRTALYDYLFAKHNGGDFILRIEDTDTQRYVPGSEEYIMEALEWIGMVPDESPKHGGPYAPYRQSERRDIYDRYTEQILKTDYAYLAFDTPEELDQIRAEFEARGDVFAYNYETRNRLRNSISLPEEEVKKLLEEKTPYVIRFKMPLDRIINLNDIIRGKFSVNTNTLDDKVLVKNDGMPTYHFANIIDDHEMKITHVIRGEEWLPSMALHVLLYEAMGWDAPEFAHLSLILKPEGKGKLSKRDGDKFGFPVFPLNFTDPATGNTSAGYREEGYLPEAFINMVAMLGWSPADNKEIVSMDEMIKEFDLNKVHKAGARFSAEKAKWFNQQYLQLMSNEAILPEFKKVLAENNVEVSDEKALKIIGLMKERATFVKDIYNDGKFFFHAPESFDEKASKKAWSPETAVLMQELTEAISSLDFKAEIIKESIHHLAEAKGLGMGKVMMPLRLSLVGELKGPDVPDLMEMIGKEETISRINKAIETLK,no binding,–
glutamyl-tRNA synthetase from Elizabethkingia meningosepticum (enzyme) MEKVRVRFAPSPTGPLHLGGVRTALYDYLFAKHNGGDFILRIEDTDTQRYVPGSEEYIMEALEWIGMIPDESPKHGGPYAPYRQSERRAIYDKYTEQILKTDYAYLAFDTPEELDQIRAEYEAKGDVFAYNYETRHRLRNSISLPEDEVKKLLDEKTPYVIRFKMPLDRIINLNDIIRGKFSVNTNTLDDKVLVKNDGMPTYHFANIIDDHEMKITHVIRGEEWLPSMALHVLLYEAMEWNAPEFAHLSLILKPEGKGKLSKRDGDKFGFPVFPLNFTDPATGNTSAGYREEGYLPEAFINMVAMLGWSPADNKEIISMDEMIKEFDLHKVHKAGARFSAEKAKWFNQQYLQMMSNEAILPEFKTILSNNSIEISDEKALRIIGLMKERATFIKDIYNDGKFFFHAPESYDEKAAKKAWSPETAALMQEVNNAITTVDFKADTIKESLHHLTEEKGLGMGKVMMPLRLSLVGELKGPDVPELMEIIGKEESVSRITKAIETLK,–,no binding
